## Cleaved PARP in drug-treated melanoma cells

Values as published with doi:10.1371/journal.pone.0140310, rounded.

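The test systems are human melanoma cell lines, treated with two drugs together for 72 h and then stained and imaged. Each value is the cleaved-PARP-positive fraction of nuclei relative to DMSO-treated wells, in %, so that 100 equals the control and higher values mean more apoptosis. Every drug was used at one fixed concentration, the higher of two screened. These are primary screening values without error estimates. The marker varies much from line to line, for technical or biological reasons.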 This is part of the screen, not chosen by result.

All values are for the listed drug together with GW2580 (5 µM): COc1ccc(COc2ccc(Cc3cnc(N)nc3N)cc2OC)cc1

{"second drug": "Nc1ncn([C@H]2C[C@H](O)[C@@H](CO)O2)c(=O)n1 at 0.5 µM", "UACC-257": 187, "MeWo": 219, "COLO 792": 95.6, "SK-MEL-30": 73.3, "WM1716": 142}
{"second drug": "C/C(O)=C(\\C#N)C(=O)Nc1cc(Br)ccc1Br at 10 µM", "UACC-257": 57.1, "MeWo": 62.2, "COLO 792": 56.6, "SK-MEL-30": 182, "WM1716": 107}
{"second drug": "O=C(O)c1ccc(-c2c[nH]c3ncc(-c4ccccc4)cc23)cc1C1CCCC1 at 0.8 µM", "UACC-257": 57.5, "MeWo": 42.0, "COLO 792": 138, "SK-MEL-30": 144, "WM1716": 157}
{"second drug": "C[C@]12O[C@H](C[C@]1(O)CO)n1c3ccccc3c3c4c(c5c6ccccc6n2c5c31)CNC4=O at 0.02 µM", "UACC-257": 31.9, "MeWo": 86.1, "COLO 792": 141, "SK-MEL-30": 151, "WM1716": 53.6}
{"second drug": "NC(=O)c1ccc(N(C(N)=O)c2c(F)cccc2F)nc1-c1ccc(F)cc1F at 2 µM", "UACC-257": 124, "MeWo": 74.2, "COLO 792": 115, "SK-MEL-30": 109, "WM1716": 156}
{"second drug": "Cn1cc(/C=C2\\C(=O)Nc3cccnc32)c2ccccc21 at 2 µM", "UACC-257": 108, "MeWo": 114, "COLO 792": 64.1, "SK-MEL-30": 137, "WM1716": 39.1}
{"second drug": "O=c1[nH]nc(Sc2ncc([N+](=O)[O-])s2)n1-c1ccc2c(c1)OCCO2 at 1 µM", "UACC-257": 76.4, "MeWo": 29.3, "COLO 792": 110, "SK-MEL-30": 97.2, "WM1716": 131}
{"second drug": "C#Cc1cccc(Nc2ncnc3cc(OCCOC)c(OCCOC)cc23)c1 at 4 µM", "UACC-257": 42.2, "MeWo": 76.8, "COLO 792": 222, "SK-MEL-30": 85.7, "WM1716": 81.3}
{"second drug": "c1cc(-c2cnn3cc(-c4ccc(OCCN5CCCCC5)cc4)cnc23)ccn1 at 2 µM", "UACC-257": 57.3, "MeWo": 25.6, "COLO 792": 70.0, "SK-MEL-30": 120, "WM1716": 47.4}
{"second drug": "COc1cc([C@@H]2c3cc4c(cc3[C@@H](O[C@@H]3O[C@@H]5CO[C@@H](C)O[C@H]5[C@H](O)[C@H]3O)[C@H]3COC(=O)[C@H]23)OCO4)cc(OC)c1O at 0.1 µM", "UACC-257": 34.6, "MeWo": 125, "COLO 792": 68.6, "SK-MEL-30": 76.4, "WM1716": 148}
{"second drug": "CS(=O)(=O)CCNCc1ccc(-c2ccc3ncnc(Nc4ccc(OCc5cccc(F)c5)c(Cl)c4)c3c2)o1 at 4 µM", "UACC-257": 37.1, "MeWo": 170, "COLO 792": 191, "SK-MEL-30": 106, "WM1716": 57.5}
{"second drug": "C[As](C)SC[C@H](NC(=O)CC[C@H](N)C(=O)O)C(=O)NCC(=O)O at 2 µM", "UACC-257": 23.3, "MeWo": 97.7, "COLO 792": 112, "SK-MEL-30": 116, "WM1716": 146}
{"second drug": "Cc1cc(Nc2cc(N3CCN(C)CC3)nc(Sc3ccc(NC(=O)C4CC4)cc3)n2)n[nH]1 at 0.03 µM", "UACC-257": 77.6, "MeWo": 186, "COLO 792": 88.0, "SK-MEL-30": 146, "WM1716": 89.8}
{"second drug": "Cc1cn(-c2cc(NC(=O)c3ccc(C)c(Nc4nccc(-c5cccnc5)n4)c3)cc(C(F)(F)F)c2)cn1 at 1 µM", "UACC-257": 51.5, "MeWo": 47.6, "COLO 792": 105, "SK-MEL-30": 87.3, "WM1716": 18.9}
{"second drug": "Cc1nc(Nc2ncc(C(=O)Nc3c(C)cccc3Cl)s2)cc(N2CCN(CCO)CC2)n1 at 0.02 µM", "UACC-257": 75.4, "MeWo": 44.1, "COLO 792": 81.1, "SK-MEL-30": 178, "WM1716": 1170}
{"second drug": "O=C(Nc1ccccc1)c1cc([N+](=O)[O-])ccc1Cl at 10 µM", "UACC-257": 53.2, "MeWo": 205, "COLO 792": 213, "SK-MEL-30": 108, "WM1716": 135}
{"second drug": "CCCCCCCCCCCC1=C(O)C(=O)C=C(O)C1=O at 6 µM", "UACC-257": 11.8, "MeWo": 39.8, "COLO 792": 167, "SK-MEL-30": 103, "WM1716": 83.6}
{"second drug": "O=C(/C=C/c1cccnc1)NCCCCC1CCN(C(=O)c2ccccc2)CC1 at 0.05 µM", "UACC-257": 67.4, "MeWo": 115, "COLO 792": 989, "SK-MEL-30": 194, "WM1716": 77.3}
{"second drug": "NC(=O)Nc1cc(-c2cccc(F)c2)sc1C(=O)N[C@H]1CCCNC1 at 0.1 µM", "UACC-257": 24.7, "MeWo": 200, "COLO 792": 531, "SK-MEL-30": 749, "WM1716": 287}
{"second drug": "CO[C@@H]1[C@H](N(C)C(=O)c2ccccc2)C[C@H]2O[C@]1(C)n1c3ccccc3c3c4c(c5c6ccccc6n2c5c31)C(=O)NC4 at 0.4 µM", "UACC-257": 40.5, "MeWo": 192, "COLO 792": 137, "SK-MEL-30": 201, "WM1716": 193}
{"second drug": "O=C(O)C(=O)Nc1sc2c(c1C(=O)O)CCNC2 at 8.33 µM", "UACC-257": 68.9, "MeWo": 38.1, "COLO 792": 149, "SK-MEL-30": 67.5, "WM1716": 64.5}
{"second drug": "CC(C)C[C@H](NC(=O)[C@H](Cc1ccccc1)NC(=O)c1cnccn1)B(O)O at 0.005 µM", "UACC-257": 39.2, "MeWo": 3050, "COLO 792": 161, "SK-MEL-30": 537, "WM1716": 3720}
{"second drug": "COc1ccc2c(c1)CCC1C2CCC2(C)C(NCCCCCCN3C(=O)C=CC3=O)CCC12 (stereo not drawn) at 2 µM", "UACC-257": 195, "MeWo": 68.4, "COLO 792": 85.3, "SK-MEL-30": 124, "WM1716": 122}
{"second drug": "CCCS(=O)(=O)Nc1ccc(F)c(C(=O)c2c[nH]c3ncc(Cl)cc23)c1F at 0.4 µM", "UACC-257": 65.5, "MeWo": 81.6, "COLO 792": 59.3, "SK-MEL-30": 104, "WM1716": 168}

Some entries from above, unchanged:

Second drug	UACC-257	MeWo	COLO 792	SK-MEL-30	WM1716
CCCS(=O)(=O)Nc1ccc(F)c(C(=O)c2c[nH]c3ncc(Cl)cc23)c1F at 0.4 µM	65.5	81.6	59.3	104	168
O=C(O)C(=O)Nc1sc2c(c1C(=O)O)CCNC2 at 8.33 µM	68.9	38.1	149	67.5	64.5
O=C(Nc1ccccc1)c1cc([N+](=O)[O-])ccc1Cl at 10 µM	53.2	205	213	108	135